Assay results: patent US20030082682A1
Results are given in words; binding and its absence hold for the method and conditions named. Some results given as binding are weak or reduced against the parent protein; the word gives no strength.

By UniProt entry, the sequences of proteins in these tests, tags left out. Residues count along the entry.
UniProt P37231, residues 204-505: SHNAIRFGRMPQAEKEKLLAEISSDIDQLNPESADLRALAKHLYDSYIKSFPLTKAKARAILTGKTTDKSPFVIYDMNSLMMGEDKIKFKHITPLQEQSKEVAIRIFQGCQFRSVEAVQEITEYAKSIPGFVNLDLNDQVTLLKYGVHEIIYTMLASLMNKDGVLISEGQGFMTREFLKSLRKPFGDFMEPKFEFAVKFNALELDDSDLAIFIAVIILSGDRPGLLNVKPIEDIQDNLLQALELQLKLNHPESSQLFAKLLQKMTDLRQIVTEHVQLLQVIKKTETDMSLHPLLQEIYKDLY

Biological target: PPARg (UniProt P37231)
Assay: two-hybrid, directed analysis against a panel of nuclear hormone receptors

binding: binds
B1: RXR interacting protein, RB204 (protein)
chain: MGATIECWPAQTKYPVPVFSTFVLTGAAGDKVYGAALQFYEAFPRARLSERQARALGLLSAVERGRALGGRAVRSRRAIAVLSRWPAFPAFRAFLTFLYRYSVSGPHRLPLEAHISHFIHNVPFPSPQRPRILVQMSPYDNLLLCQPVSSPLPLSGASFLQLLQSLGPELAITLLLAVLTEHKLLVHSLRPDLLTSVCEALVSMIFPLHWQCPYIPLCPLVLADVLSAPVPFIVGIHSSYFDLHDPPADVICVDLDTNTLFQTEEKKLLSPRTLPRRPYKVLLATLTNLYQQLDQTYTGPEEEASLEFLLTDYEAVCGRRARLEREVQGAFLRFMACLLKGYRVFLRPLTQAPSEGARDVDNLFFLQGFLKSRERSSHKLYSQLLHTQMFSQFIEECSFGSARHAALEFFDSCVEKVHPEQEKPEPTPLVELEELSGSELTVFITPPEEPALPEGSESTPQYCYDGFPELRAELFESLQEQPGALPVPGPSRSAPSSPAPRRTKQEMKVAQRMAQKSAAVPELWARCLLGHCYGLWFLCLPAYVRSAPSRVQALHTAYHVLRQMESGKVVLPDEVCYRVLMQLCSHYGQPVLSVRVMLEMRQAGIVPNTITYGYYNKAVLESKWPSGTPGGRLRWAKLRNVVLGAAQFRQPLRERQQQQQQQQQQQQQQQQEQVSAHQEAGSSQAEPYLERPSPTRPLQRQTTWAGRSLRDPASPPGRLVKSGSLGSARGAQPTVEAGVAHMIEALGVLEPRGSPVPWHDGSLSDLSLTGEEPLPGGSPGGSGSALSAQSTEALEGLSGRGPKAGGRQDEAGTPRRGLGARLQQLLTPSRHSPASRIPPPELPPDLPPPARRSPMDSLLHPRERPGSTASESSASLGSEWDLSESSLSNLSLRRSSERLSDTPGSFQSPSLEILLSSCSLCRACDSLVYDEEIMAGWAPDDSNLNTTCPFCACPFVPLLSVQTLDSRPSVPSPKSAGASGSKDAPVPGGPGPVLSDRRLCLALDEPQLCNGHMGGASRRVESGAWAYLSPLVLRKELESLVENEGSEVLALPELPSAHPIIFWNLLWYFQRLRLPSILPGLVLASCDGPSHSQAPSPWLTPDPASVQVRLLWDVLTPDPNSCPPLYVLWRVHSQIPQRVVWPGPVPASLSLALLESVLRHVGLNEVHKAVGLLLETLGPPPTGLHLQRGIYREILFLTMAALGKDHVDIVAFDKKYKSAFNKLASSMGKEELRHRRAQMPTPKAIDCRKCFGAPPEC
